The test system of this experiment is CD2F1 mice, L1210 leukemia ip, survival T/C. As to the kind of experiment: NCI In Vivo Anticancer Drug Screen. Data for tumor model L1210 Leukemia (intraperitoneal) in CD2F1 (CDF1) mice. Conditions: higher T/C = longer survival. The procedure, abridged:
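Implant tumor; dose compound or vehicle; measure endpoint in both groups; report treated divided by control.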

[1] abbreviates: T/C endpoint: mean survival time, dose: 400.0 mg/kg/injection, schedule: Q04DX003 (ip), vehicle: saline with Tween-80.
Setting [2] is: T/C endpoint: mean survival time, dose: 400.0 mg/kg/injection, schedule: Q01DX009 (ip), vehicle: saline.
Where [3] appears, read: T/C endpoint: mean survival time, dose: 200.0 mg/kg/injection, schedule: Q01DX009 (ip), vehicle: saline.
[4] abbreviates: T/C endpoint: mean survival time, dose: 200.0 mg/kg/injection, schedule: Q04DX003 (ip), vehicle: saline with Tween-80.
The mark [5] stands for this setting: T/C endpoint: mean survival time, dose: 200.0 mg/kg/injection, schedule: Q01DX001 (ip), vehicle: saline with Tween-80.
[6] abbreviates: T/C endpoint: mean survival time, dose: 400.0 mg/kg/injection, schedule: Q01DX001 (ip), vehicle: saline with Tween-80.

The results in this text go back to PubChem BioAssay AID256 (DTP/NCI, 2004).

The list is a part of this screen's results and no random one: it gathers tests that were run many times, whatever their T/C, doses with no T/C, and many T/C values between a quarter and a half above the control. Other doses and runs of a compound stand elsewhere. T/C gives the treated animals as a percentage of the vehicle group. Some doses have a count of surviving animals in place of a T/C: the source holds a T/C of zero for them, seemingly a mark for toxic or unscored doses. Some survivor counts are full or nearly so, which does not show that the dose was tolerated: survival well below the control is almost never listed, so the zero probably covers shortened survival too. Survivors were counted at the toxicity check, usually on the fifth day, unless a day is given; later deaths do not show. Schedule codes are those of the source, taken here to give the interval after Q, in days (D) or hours (H), and the number of doses after X. Some doses were run more than once; their values stand side by side, smallest first. Some schedule codes hold Z or #, which are not explained here. Where survival is the endpoint, this PubChem deposit counts one and a half times the control or more as active, and values a quarter to a half above the control carry no call in these data; other NCI protocols may use other cut-offs. Some T/C values are followed by the survivors on the day toxicity was checked, most often the fifth; without a count, all were alive then.

In the case of `O=C1c2ccccc2C(=O)c2cc(N3C(=O)C=CC3=O)ccc21`, the survivor count (T/C endpoint: mean survival time, dose: 400.0 mg/kg/injection, schedule: Q01DX001 (ip), vehicle: saline) is given as 0 of 6.
On to `Cc1cccc(NC(=O)C2CCC(C)(C(=O)O)C2(C)C)c1` (stereo not given), for which the survivor count under setting [1] was 1 of 6.
With `O=C1CC2=C(CC(O)=CC=C2)C(=O)O1`, the survivor count under setting [2] is reported as 0 of 6.
Take `CN(C)C(=N)N(C)C`: the survivor count runs as follows: (T/C endpoint: mean survival time, dose: 200.0 mg/kg/injection, schedule: Q04DX003 (ip), vehicle: saline sonified) 2 of 6; (T/C endpoint: mean survival time, dose: 400.0 mg/kg/injection, schedule: Q04DX003 (ip), vehicle: saline sonified) 0 of 6.
Turning to `C/C(=N\N=C(N)N)c1ccc(NC(=O)Nc2ccc(/C(C)=N/N=C(N)N)cc2)cc1`, the T/C (T/C endpoint: mean survival time, dose: 50.0 mg/kg/injection, schedule: Q03DX003 (ip), vehicle: saline) is 144 % of control; the T/C (T/C endpoint: mean survival time, dose: 50.0 mg/kg/injection, schedule: Q04DX003 (ip), vehicle: saline) was 137 % of control; the T/C (T/C endpoint: mean survival time, dose: 100.0 mg/kg/injection, schedule: Q01DX001 (ip), vehicle: saline) was 143 % of control; the T/C (T/C endpoint: mean survival time, dose: 100.0 mg/kg/injection, schedule: Q03HX008 (ip), vehicle: saline) is 143 % of control; the T/C (T/C endpoint: mean survival time, dose: 100.0 mg/kg/injection, schedule: Q04DX003 (ip), vehicle: saline) is 143 % of control; the T/C (T/C endpoint: mean survival time, dose: 100.0 mg/kg/injection, schedule: Q08DX002 (ip), vehicle: saline) was 136 % of control. Moreover, the T/C reads like this: (T/C endpoint: mean survival time, dose: 100.0 mg/kg/injection, schedule: Q## X016 (ip), vehicle: saline) 144 % of control; (T/C endpoint: mean survival time, dose: 200.0 mg/kg/injection, schedule: Q01DX005 (ip), vehicle: saline) 135 % of control [7 of 10 alive]; under setting [3], 135 % of control [8 of 10 alive]. The survivor count runs as follows: (T/C endpoint: mean survival time, dose: 400.0 mg/kg/injection, schedule: Q01DX005 (ip), vehicle: saline) 1 of 10; (T/C endpoint: mean survival time, dose: 800.0 mg/kg/injection, schedule: Q03HX008 (ip), vehicle: saline) 3 of 10; (T/C endpoint: mean survival time, dose: 800.0 mg/kg/injection, schedule: Q## X024 (ip), vehicle: saline) 4 of 10.
As to `BrCC1OCCCO1`, where the note is “T/C endpoint: mean survival time, dose: 100.0 mg/kg/injection, schedule: Q01DX009 (ip), vehicle: saline with Tween-80”, the survivor count is listed as 3 of 3.
With `COC1=C(C)C(=O)c2c(c(COC(N)=O)c3n2CCC3OC(N)=O)C1=O` (stereo not given), the survivor count reads like this: (T/C endpoint: mean survival time, dose: 20.0 mg/kg/injection, schedule: Q01DX001 (ip), vehicle: distilled water + Tween-80) 0 of 6; (T/C endpoint: mean survival time, dose: 24.0 mg/kg/injection, schedule: Q01DX001 (ip), vehicle: distilled water + Tween-80) 3 of 6.
With `C/C=C(\C)c1cc(=O)c2c(C)cc3c(c2o1)C(=O)c1c(O)c(C2CC(C)(N(C)C)C(OC(C)=O)C(C)O2)cc(C2CC(N(C)C)C(O)C(C)O2)c1C3=O` (stereo not given), the survivor count (T/C endpoint: mean survival time, dose: 5.0 mg/kg/injection, schedule: Q01DX009 (ip), vehicle: saline) was 5 of 6.
Take `O=[Te]=O`: the survivor count (T/C endpoint: median survival time, dose: 40.0 mg/kg/injection, schedule: Q01DX009 (ip), vehicle: saline) is listed as 2 of 6.
Consider `O=C(CCl)Nc1ncc([N+](=O)[O-])s1`, for which the survivor count reads like this: (T/C endpoint: mean survival time, dose: 100.0 mg/kg/injection, schedule: Q04DX003 (ip), vehicle: acetone) 3 of 6; (T/C endpoint: mean survival time, dose: 200.0 mg/kg/injection, schedule: Q04DX003 (ip), vehicle: acetone) 0 of 6; (T/C endpoint: mean survival time, dose: 400.0 mg/kg/injection, schedule: Q04DX003 (ip), vehicle: acetone) 0 of 6.
In the case of `CN(C)Cc1cc(C(C)(C)CC(C)(C)C)cc(CN(C)C)c1O`, the survivor count is, setting by setting: under setting [4], 2 of 6; under setting [1], 0 of 6.
Consider `CC(C)(Cc1ccc([N+](=O)[O-])cc1)[N+](=O)[O-]`, for which, under “T/C endpoint: mean survival time, dose: 300.0 mg/kg/injection, schedule: Q01DX001 (ip), vehicle: saline”, the survivor count is reported as 1 of 6.
Consider `CC1CC1Cc1ccccc1` (stereo not given), for which the survivor count reads like this: under setting [5], 6 of 6; under setting [6], 6 of 6.
Consider `CCC1=C[C@H]2CN(CCc3c([nH]c4ccccc34)[C@@](C(=O)OC)(c3cc4c(cc3OC)N(C)[C@H]3[C@@](O)(C(=O)NC)[C@H](OC(C)=O)[C@]5(CC)C=CCN6CC[C@]43[C@@H]65)C2)C1`, for which the T/C (T/C endpoint: mean survival time, dose: 0.12 mg/kg/injection, schedule: Q01DX009 (ip), vehicle: water) is 132 % of control; the T/C (T/C endpoint: mean survival time, dose: 0.25 mg/kg/injection, schedule: Q01DX009 (ip), vehicle: water) was 125 % of control; the T/C (T/C endpoint: mean survival time, dose: 0.5 mg/kg/injection, schedule: Q01DX009 (ip), vehicle: water) was 127 % of control. Also, the survivor count runs as follows: (T/C endpoint: mean survival time, dose: 1.0 mg/kg/injection, schedule: Q01DX009 (ip), vehicle: water) 6 of 6; (T/C endpoint: mean survival time, dose: 2.0 mg/kg/injection, schedule: Q01DX009 (ip), vehicle: water) 5 of 6.
As to `C1C[N-]CC[N-]CC[N-]CC[N-]1.[Cl][Rh][Cl]`, the survivor count is 1 of 6 and 6 of 6 (T/C endpoint: mean survival time, dose: 25.0 mg/kg/injection, schedule: Q01DX009 (ip), vehicle: saline); 2 of 6 (T/C endpoint: mean survival time, dose: 50.0 mg/kg/injection, schedule: Q01DX009 (ip), vehicle: saline); 0 of 6 (T/C endpoint: mean survival time, dose: 100.0 mg/kg/injection, schedule: Q01DX009 (ip), vehicle: saline); 0 of 6 under setting [3].
For the compound `CCCCCCCCCCCCNC(=O)c1ccc[n+](Cc2ccccc2)c1`, the survivor count is listed as 0 of 6 (T/C endpoint: mean survival time, dose: 100.0 mg/kg/injection, schedule: Q04DX003 (ip), vehicle: saline with Tween-80); 0 of 6 under setting [4]; 0 of 6 under setting [1].
For `CCCCCCCCCOc1ccc(Cl)cc1`, where the note is “T/C endpoint: mean survival time, dose: 200.0 mg/kg/injection, schedule: Q04DX002 (ip), vehicle: saline with Tween-80”, the survivor count was 3 of 3.
`CCN(CC)CCCC(C)NS(=O)(=O)c1cccc2c(N(C)C)cccc12` (stereo not given): the survivor count reads like this: (T/C endpoint: mean survival time, dose: 200.0 mg/kg/injection, schedule: Q01DX009 (ip), vehicle: water) 0 of 6; (T/C endpoint: mean survival time, dose: 400.0 mg/kg/injection, schedule: Q01DX009 (ip), vehicle: water) 0 of 6.
As for `CCOC(=O)C(N)C[S][Sn]([CH3])([CH3])[Cl]` (stereo not given), the survivor count is on record as 3 of 6 (T/C endpoint: median survival time, dose: 50.0 mg/kg/injection, schedule: Q01DX009 (ip), vehicle: saline) and 0 of 6 (T/C endpoint: median survival time, dose: 100.0 mg/kg/injection, schedule: Q01DX009 (ip), vehicle: saline).
Take `COCCNC(=S)SCCN(C(C)C)C(C)C`: the survivor count (T/C endpoint: mean survival time, dose: 200.0 mg/kg/injection, schedule: Q01DX001 (sc), vehicle: olive oil, sesame oil, peanut oil) was 1 of 6 and the survivor count (T/C endpoint: mean survival time, dose: 400.0 mg/kg/injection, schedule: Q01DX001 (sc), vehicle: olive oil, sesame oil, peanut oil) is 0 of 6.
In the case of `CC1(COCCOCC2(C)CO2)CO1` (stereo not given), the T/C under setting [2] was 134 % of control.
`CCC[CH2][Sn]1([CH2]CCC)[O]C2C(CO)OC(n3c(Br)c(C(N)=O)c4c(N)ncnc43)C2[O]1` (stereo not given): the survivor count by setting is: (T/C endpoint: mean survival time, dose: 6.25 mg/kg/injection, schedule: Q01DX009 (ip), vehicle: distilled water + Tween-80) 5 of 6; (T/C endpoint: mean survival time, dose: 12.5 mg/kg/injection, schedule: Q01DX009 (ip), vehicle: distilled water + Tween-80) 1 of 6; (T/C endpoint: mean survival time, dose: 25.0 mg/kg/injection, schedule: Q01DX009 (ip), vehicle: distilled water + Tween-80) 0 of 6; (T/C endpoint: mean survival time, dose: 50.0 mg/kg/injection, schedule: Q01DX009 (ip), vehicle: distilled water + Tween-80) 0 of 6; (T/C endpoint: mean survival time, dose: 100.0 mg/kg/injection, schedule: Q01DX009 (ip), vehicle: distilled water + Tween-80) 0 of 6; (T/C endpoint: mean survival time, dose: 200.0 mg/kg/injection, schedule: Q01DX009 (ip), vehicle: distilled water + Tween-80) 0 of 6. For the same compound, the survivor count (T/C endpoint: mean survival time, dose: 400.0 mg/kg/injection, schedule: Q01DX009 (ip), vehicle: distilled water + Tween-80) is 0 of 6.
As to `O=c1c(Cl)c(C(Cl)(Cl)Cl)[nH]c2ccccc12`, the survivor count by setting is: (T/C endpoint: mean survival time, dose: 100.0 mg/kg/injection, schedule: Q01DX001 (ip), vehicle: saline with Tween-80) 0 of 6; under setting [5], 0 of 6; under setting [6], 0 of 6.
